Measurements reported in PubChem BioAssay AID1259254 (NCATS, 2017)

Purpose: 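Finding genes that stop cells copying their DNA twice in one cycle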 (primary screen)
System: human HCT116 colorectal cancer cells
Reagents: single siRNA against human genes
Timing: 3 days
Measured: 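Nuclei stained with Hoechst and imaged; cell-cycle phase assigned by DNA content; G2 share scaled per plate, non-targeting siRNA 0%, GMNN siRNA 100%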
Reading the numbers: G2 robust z-score: higher = more G2 cells, more excess DNA replication
Hit rule: 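An siRNA counts as active if its G2 robust z-score lies at least 5 MADs above the screen median; here such calls match roughly 38% of GMNN control or more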
Here is one part, drawn at random, of about 59,000 reagents. About 1,550 of all reagents (2.6%) count as active. 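G2 share is only a proxy for re-replication; each gene was hit by three separate siRNAs, and active genes were retested.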 Unmarked entries are inactive. Reagents against one gene are numbered here. Not all columns of the deposit are shown. The record does not give: the amount of reagent.

Target gene	reagent no.	G2 robust z-score
FSAF1	1	2.03
FSAF1	2	-0.435
FSAF1	3	0.252
PREPL	1	-1.08
PREPL	2	-0.923
PREPL	3	-0.421
RELL1	1	-0.465
RELL1	2	0.307
RELL1	3	-0.664
CDH22	1	-0.0659
CDH22	2	4.35
CDH22	3	0.0924
CERCAM	1	0.0837
CERCAM	2	4.27
CERCAM	3	-0.708
STAT6	1	-0.244
STAT6	2	2.36
STAT6	3	-1.01
CORO2A	1	-0.548
CORO2A	2	-1.27
CORO2A	3	-0.604
LOC400870 (retired record)	1	-0.46
LOC400870 (retired record)	2	2.4
LOC400870 (retired record)	3	-0.22
RRS1	1	2.82
RRS1	2	1.97
RRS1	3	-0.0582
RASL10A	1	0.0685
RASL10A	2	-0.505
RASL10A	3	-1.67
ATAD3B	1	2.89
ATAD3B	2	-0.89
ATAD3B	3	-0.569
HYLS1	1	-0.563
HYLS1	2	-0.418
HYLS1	3	0.324
ZSCAN5C	1	-0.619
ZSCAN5C	2	0.311
ZSCAN5C	3	-0.703
SERP2	1	6.04 (active)
SERP2	2	-0.187
SERP2	3	-0.796

Reformatted: 9 of the entries above.
RRS1 #2: G2 robust z-score = 1.97
RRS1 #3: G2 robust z-score = -0.0582
RASL10A #1: G2 robust z-score = 0.0685
RASL10A #2: G2 robust z-score = -0.505
RASL10A #3: G2 robust z-score = -1.67
ATAD3B #1: G2 robust z-score = 2.89
ATAD3B #2: G2 robust z-score = -0.89
ATAD3B #3: G2 robust z-score = -0.569
HYLS1 #1: G2 robust z-score = -0.563

The listing continues:
Target gene	reagent no.	G2 robust z-score
LAMA1	1	-0.827
LAMA1	2	-0.18
LAMA1	3	4.51
SLC39A3	1	-0.01
SLC39A3	2	-0.938
SLC39A3	3	-0.254
LPCAT4	1	0.96
LPCAT4	2	1.01
LPCAT4	3	-0.381
BCKDK	1	5.25 (active)
BCKDK	2	-0.747
BCKDK	3	1.13
ACP4	1	-0.157
ACP4	2	-0.536
ACP4	3	-0.693
NDST2	1	6.87 (active)
NDST2	2	0.309
NDST2	3	-0.453
SFRP4	1	2.29
SFRP4	2	0.222
SFRP4	3	-0.831
HEG1	1	-0.531
HEG1	2	-0.846
HEG1	3	1.08
MCTS1	1	0.0326
MCTS1	2	-0.991
MCTS1	3	-0.996
